Results deposited as PubChem BioAssay AID1259308 (NCATS, 2017).
Here is one part, drawn at random, of about 59,000 deposited reagents. Of all reagents, about 1,510 (2.6%) were called active. 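Calls use total luciferase alone and ignore viability, so some active siRNAs may act by altering cell number.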 A number with no mark means an inactive call. Reagents against one gene are numbered here. Not all columns of the deposit are shown.

Screen: 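Knock-downs that increase output of a recombinant reporter protein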 (primary screen)
Cell system: human HEK293 embryonic kidney cells stably expressing firefly luciferase (HEK-CMV-Luc2-Hygro)
Reagent: single siRNA against human genes, 0.8 pmol siRNA per well
Time to read-out: 72 h
Read-out: 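Luciferase light (ONE-Glo) measured on one replicate plate set and viability (CellTiter-Glo) on the other, scaled to a negative control siRNA, with robust z-scores and luciferase per cell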
Reading the numbers: total luciferase, z-score: higher = more reporter protein produced
Rule for the call: 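An siRNA counts as active if its total luciferase robust z-score exceeds 3; genes with two or more such siRNAs out of three were retested with fresh siRNAs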
Calls: active = raised luciferase; inactive = no rise

total luciferase, z-score, by target gene and reagent
CFAP97 (cilia and flagella associated protein 97): #1 0.802; #2 0.219; #3 -2.03
AKAIN1 (A-kinase anchor inhibitor 1): #1 2.99; #2 0.77; #3 1.88
CLEC4A (C-type lectin domain family 4 member A): #1 0.498; #2 -0.408; #3 -0.713
BCAS3 (BCAS3 microtubule associated cell migration factor): #1 -1.43; #2 -0.943; #3 -0.152
GIT2 (GIT ArfGAP 2): #1 -0.264; #2 1.33; #3 0.553
PLCD4 (phospholipase C delta 4): #1 -0.355; #2 1.15; #3 -1.55
CCDC148 (coiled-coil domain containing 148): #1 2.24; #2 0.635; #3 -0.759

In a second layout: results already given.
target gene	reagent	total luciferase, z-score
GIT2 (GIT ArfGAP 2)	3	0.553
PLCD4 (phospholipase C delta 4)	1	-0.355
PLCD4 (phospholipase C delta 4)	2	1.15
PLCD4 (phospholipase C delta 4)	3	-1.55
CCDC148 (coiled-coil domain containing 148)	1	2.24
CCDC148 (coiled-coil domain containing 148)	2	0.635

More results follow:
total luciferase, z-score, by target gene and reagent
MNT (MAX network transcriptional repressor): #1 -0.439; #2 -0.123; #3 0.458
LGALS7B (galectin 7B): #1 1.37; #2 -1.39; #3 -0.124
MRPS21 (mitochondrial ribosomal protein S21): #1 -0.616; #2 0.331; #3 -0.37
HMGB3P19 (high mobility group box 3 pseudogene 19): #1 0.795; #2 0.121; #3 0.194
ZNF487 (zinc finger protein 487): #1 0.406; #2 -0.0906; #3 1.09
MTRES1 (mitochondrial transcription rescue factor 1): #1 0.28; #2 2.45; #3 1.42
BAG2 (BAG cochaperone 2): #1 0.654; #2 -2.67; #3 0.24
PABIR3 (PABIR family member 3): #1 0.318; #2 -1.61; #3 -0.21
PCYT1B (phosphate cytidylyltransferase 1B, choline): #1 1.23; #2 0.822; #3 0.0266
EXOSC2 (exosome component 2): #1 -0.527; #2 1.12; #3 4.85 (active)
TNRC18 (trinucleotide repeat containing 18): #1 0.317; #2 -0.609; #3 1.44
CDC42EP3 (CDC42 effector protein 3): #1 1.09; #2 0.894; #3 -0.607
